Data: PubChem BioAssay AID743397 (Broad Institute, 2014)
In all, about 340,000 compounds went through this assay and about 330 (0.097%) were called active. Inconclusive means that the source gave no clear call. Such entries were picked first, then a sample of the others.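 Rule for the calls: active = mean replicate inhibition of at least 30% and at least 1% of replicates passing that level; inconclusive = only one of the two criteria is met; inactive = neither criterion is met.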

system: Voltage-dependent L-type calcium channel subunit alpha-1D (CaV1.3) ICDI/IQ interaction; test: Disruptors of the CACNA1D IQ motif to Ca2+-dependent inactivation inhibitor domain association, primary screening, Förster resonance energy transfer in intact living cells, one concentration (AID 743397); settings: HEK cells, CFP/YFP FRET ICDI-IQ, plate reader, 10 min; at 12.3 µM; hits give high values;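 note: 0% = median of the neutral control wells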

Row | Structure (SMILES) | inhibition
1 | C[C@]12CCC3[C@@H](CC[C@H]4C[C@@H](O)CC[C@]34C)C1CCC2=O (some centres not stated) | inactive: -10.7%
2 | CCc1ccc(CNCCc2c[nH]c3ccccc23)cc1 | inconclusive: 116%
